Results taken from PMC7564345.

What was measured:
Assay in all cases: two-hybrid; bait in pGBKT7 (binding domain), prey in pGADT7 (activation domain), yeast strain Y2H gold; growth on quadruple dropout medium (-Trp, -Leu, -His, -Ade) at 30 °C, double dropout as control of transformation
[1] = target: Mlp151107359 (Melampsora larici-populina)
[2] = target: Mlp1123281 (Melampsora larici-populina)
[3] = target: Mlp752166 (Melampsora larici-populina)
[4] = target: Mlp1104486 (Melampsora larici-populina)
[5] = target: Mlp3351690 (Melampsora larici-populina)
[6] = target: Mlp51108708 (Melampsora larici-populina)
[7] = target: Mlp786274 (Melampsora larici-populina)
[8] = target: Mlp772983 (Melampsora larici-populina)
[9] = target: Mlp3353845 (Melampsora larici-populina)

Measured: binding

B1: prey-AtPDI-11 (protein, UniProt O22263 23-361)
chain: DDVVVLTDDSFEKEVGKDKGALVEFYAPWCGHCKKLAPEYEKLGASFKKAKSVLIAKVDCDEQKSVCTKYGVSGYPTIQWFPKGSLEPQKYEGPRNAEALAEYVNKEGGTNVKLAAVPQNVVVLTPDNFDEIVLDQNKDVLVEFYAPWCGHCKSLAPTYEKVATVFKQEEGVVIANLDADAHKALGEKYGVSGFPTLKFFPKDNKAGHDYDGGRDLDDFVSFINEKSGTSRDSKGQLTSKAGIVESLDALVKELVAASEDEKKAVLSRIEEEASTLKGSTTRYGKLYLKLAKSYIEKGSDYASKETERLGRVLGKSISPVKADELTLKRNILTTFVASS
no binding: [1] | [2] | [3] | [4] | [5] | [6] | [7] | [8] | [9]

Results are given in words; binding and its absence hold for the method and conditions named.
